Results published in the supplement of paper PMC12819154, “High-throughput peptide-centric local stability assay extends protein–ligand identification to membrane proteins, tissues and bacteria” (Nature Structural & Molecular Biology, 2025).
Some of the results follow. Most entries show no effect beyond the scatter of the controls.

Amino acid sequences for entries named in this document (tags omitted). A change or cut given only in a name is not applied to a line headed by its entry.
UniProt Q15562, whole entry: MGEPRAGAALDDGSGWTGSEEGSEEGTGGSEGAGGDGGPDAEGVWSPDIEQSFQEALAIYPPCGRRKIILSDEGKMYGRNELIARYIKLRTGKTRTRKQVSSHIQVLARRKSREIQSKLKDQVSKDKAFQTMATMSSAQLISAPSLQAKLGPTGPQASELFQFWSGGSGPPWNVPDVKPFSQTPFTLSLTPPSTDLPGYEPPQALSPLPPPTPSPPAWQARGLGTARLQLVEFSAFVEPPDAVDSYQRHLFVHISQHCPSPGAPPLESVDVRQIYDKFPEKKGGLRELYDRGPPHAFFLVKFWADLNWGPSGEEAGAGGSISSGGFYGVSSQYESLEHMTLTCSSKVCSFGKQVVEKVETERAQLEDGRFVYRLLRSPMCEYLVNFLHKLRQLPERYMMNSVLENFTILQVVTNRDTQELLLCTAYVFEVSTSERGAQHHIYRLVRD
UniProt Q2KHM9: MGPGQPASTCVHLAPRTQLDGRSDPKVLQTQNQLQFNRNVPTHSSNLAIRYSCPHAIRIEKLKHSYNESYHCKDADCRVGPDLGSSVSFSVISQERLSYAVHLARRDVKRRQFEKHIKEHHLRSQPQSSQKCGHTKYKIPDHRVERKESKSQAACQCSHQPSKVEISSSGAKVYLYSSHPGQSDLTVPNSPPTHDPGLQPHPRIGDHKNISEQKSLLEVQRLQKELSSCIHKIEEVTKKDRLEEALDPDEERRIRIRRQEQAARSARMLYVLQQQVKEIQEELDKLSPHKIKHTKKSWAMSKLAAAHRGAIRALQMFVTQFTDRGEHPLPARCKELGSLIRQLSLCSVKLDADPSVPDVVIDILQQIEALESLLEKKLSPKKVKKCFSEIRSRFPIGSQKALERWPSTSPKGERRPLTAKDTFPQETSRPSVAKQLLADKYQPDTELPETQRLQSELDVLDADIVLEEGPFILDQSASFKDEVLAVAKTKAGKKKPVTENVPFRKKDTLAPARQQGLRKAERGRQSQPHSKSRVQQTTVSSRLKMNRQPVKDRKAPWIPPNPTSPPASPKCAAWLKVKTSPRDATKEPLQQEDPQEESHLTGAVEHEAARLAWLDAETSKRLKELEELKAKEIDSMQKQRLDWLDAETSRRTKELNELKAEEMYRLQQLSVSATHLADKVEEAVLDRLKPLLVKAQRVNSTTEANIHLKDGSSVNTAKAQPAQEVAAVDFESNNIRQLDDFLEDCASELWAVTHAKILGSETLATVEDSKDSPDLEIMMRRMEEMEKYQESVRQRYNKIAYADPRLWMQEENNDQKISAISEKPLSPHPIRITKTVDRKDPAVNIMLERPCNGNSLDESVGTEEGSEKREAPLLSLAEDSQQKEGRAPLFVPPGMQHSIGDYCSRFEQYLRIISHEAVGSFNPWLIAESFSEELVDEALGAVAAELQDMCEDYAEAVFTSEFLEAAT
UniProt Q15036: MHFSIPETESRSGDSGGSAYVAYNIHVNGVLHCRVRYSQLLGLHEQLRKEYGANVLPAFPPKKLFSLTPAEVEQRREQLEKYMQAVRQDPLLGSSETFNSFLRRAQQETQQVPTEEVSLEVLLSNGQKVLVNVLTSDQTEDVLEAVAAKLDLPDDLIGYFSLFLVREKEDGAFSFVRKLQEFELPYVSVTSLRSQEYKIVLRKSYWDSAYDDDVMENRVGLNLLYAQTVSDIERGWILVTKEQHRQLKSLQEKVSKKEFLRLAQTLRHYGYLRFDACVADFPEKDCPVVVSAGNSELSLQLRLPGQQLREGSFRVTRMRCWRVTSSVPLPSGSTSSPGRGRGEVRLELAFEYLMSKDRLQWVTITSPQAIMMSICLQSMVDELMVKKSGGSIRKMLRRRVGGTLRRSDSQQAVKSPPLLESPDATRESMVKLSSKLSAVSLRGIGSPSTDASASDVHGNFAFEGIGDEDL
UniProt Q15853: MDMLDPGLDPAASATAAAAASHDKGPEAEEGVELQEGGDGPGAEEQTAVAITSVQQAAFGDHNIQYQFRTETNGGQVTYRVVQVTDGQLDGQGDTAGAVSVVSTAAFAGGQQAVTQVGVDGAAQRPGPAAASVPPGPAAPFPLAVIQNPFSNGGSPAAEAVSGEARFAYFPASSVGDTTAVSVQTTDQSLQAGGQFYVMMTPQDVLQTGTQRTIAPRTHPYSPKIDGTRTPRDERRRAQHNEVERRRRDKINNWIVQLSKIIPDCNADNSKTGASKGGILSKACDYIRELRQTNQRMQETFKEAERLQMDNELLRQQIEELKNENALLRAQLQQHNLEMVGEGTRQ
UniProt Q15714: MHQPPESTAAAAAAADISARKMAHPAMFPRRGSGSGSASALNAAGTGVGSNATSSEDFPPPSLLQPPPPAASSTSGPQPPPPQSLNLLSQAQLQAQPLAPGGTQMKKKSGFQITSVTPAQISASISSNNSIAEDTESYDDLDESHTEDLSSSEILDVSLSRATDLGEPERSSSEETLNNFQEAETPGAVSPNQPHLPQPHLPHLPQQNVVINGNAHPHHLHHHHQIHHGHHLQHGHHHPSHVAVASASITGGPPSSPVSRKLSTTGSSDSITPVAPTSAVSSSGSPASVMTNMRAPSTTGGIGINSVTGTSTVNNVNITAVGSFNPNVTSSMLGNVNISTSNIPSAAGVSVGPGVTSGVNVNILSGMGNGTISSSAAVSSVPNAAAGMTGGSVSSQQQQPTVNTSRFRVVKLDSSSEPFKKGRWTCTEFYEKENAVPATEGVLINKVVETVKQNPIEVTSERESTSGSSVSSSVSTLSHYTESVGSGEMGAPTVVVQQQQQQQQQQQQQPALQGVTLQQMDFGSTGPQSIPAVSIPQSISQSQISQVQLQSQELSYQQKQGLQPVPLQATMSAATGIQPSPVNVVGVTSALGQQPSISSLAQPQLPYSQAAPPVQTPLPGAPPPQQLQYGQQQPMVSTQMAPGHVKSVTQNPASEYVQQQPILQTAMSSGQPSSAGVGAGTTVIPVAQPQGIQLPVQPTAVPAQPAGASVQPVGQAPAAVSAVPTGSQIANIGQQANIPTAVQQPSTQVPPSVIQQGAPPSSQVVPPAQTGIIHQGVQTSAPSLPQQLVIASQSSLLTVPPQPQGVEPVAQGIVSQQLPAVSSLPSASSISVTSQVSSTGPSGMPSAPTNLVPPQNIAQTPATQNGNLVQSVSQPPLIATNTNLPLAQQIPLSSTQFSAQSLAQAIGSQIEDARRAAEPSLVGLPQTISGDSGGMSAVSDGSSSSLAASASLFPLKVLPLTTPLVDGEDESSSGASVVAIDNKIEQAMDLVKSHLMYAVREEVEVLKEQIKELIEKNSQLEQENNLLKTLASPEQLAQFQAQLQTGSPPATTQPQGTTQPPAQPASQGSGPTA
UniProt Q32MZ4: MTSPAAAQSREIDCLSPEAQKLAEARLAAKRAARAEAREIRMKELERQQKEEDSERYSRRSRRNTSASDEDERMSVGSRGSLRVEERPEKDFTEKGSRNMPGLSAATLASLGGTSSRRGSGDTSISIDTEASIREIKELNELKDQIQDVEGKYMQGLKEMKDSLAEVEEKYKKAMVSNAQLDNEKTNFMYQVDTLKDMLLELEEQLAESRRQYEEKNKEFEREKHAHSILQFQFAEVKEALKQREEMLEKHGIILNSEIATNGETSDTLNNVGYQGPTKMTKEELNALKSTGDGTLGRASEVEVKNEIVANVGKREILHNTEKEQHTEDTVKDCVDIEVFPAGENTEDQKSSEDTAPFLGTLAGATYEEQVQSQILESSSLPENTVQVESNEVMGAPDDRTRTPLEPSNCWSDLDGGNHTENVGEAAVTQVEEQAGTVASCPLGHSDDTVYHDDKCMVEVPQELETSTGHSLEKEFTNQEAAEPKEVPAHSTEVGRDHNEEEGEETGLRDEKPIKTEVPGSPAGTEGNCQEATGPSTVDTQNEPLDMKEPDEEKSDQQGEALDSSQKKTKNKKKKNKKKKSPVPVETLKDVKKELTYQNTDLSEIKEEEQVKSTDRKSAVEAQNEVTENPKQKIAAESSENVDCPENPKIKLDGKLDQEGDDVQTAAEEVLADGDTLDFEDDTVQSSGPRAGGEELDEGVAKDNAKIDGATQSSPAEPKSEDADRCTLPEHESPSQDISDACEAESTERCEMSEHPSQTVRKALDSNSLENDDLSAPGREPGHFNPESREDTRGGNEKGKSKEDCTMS
UniProt Q15653: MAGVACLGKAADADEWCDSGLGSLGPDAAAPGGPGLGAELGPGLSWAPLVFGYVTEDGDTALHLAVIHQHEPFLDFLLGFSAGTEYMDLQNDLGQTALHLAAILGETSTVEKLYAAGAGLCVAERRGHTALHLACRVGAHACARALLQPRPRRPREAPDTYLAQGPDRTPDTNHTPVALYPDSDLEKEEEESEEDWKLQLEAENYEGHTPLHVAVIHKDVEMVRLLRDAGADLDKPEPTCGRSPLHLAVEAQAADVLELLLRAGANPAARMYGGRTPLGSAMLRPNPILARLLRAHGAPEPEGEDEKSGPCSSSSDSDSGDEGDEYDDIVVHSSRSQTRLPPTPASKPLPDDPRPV
UniProt Q15633: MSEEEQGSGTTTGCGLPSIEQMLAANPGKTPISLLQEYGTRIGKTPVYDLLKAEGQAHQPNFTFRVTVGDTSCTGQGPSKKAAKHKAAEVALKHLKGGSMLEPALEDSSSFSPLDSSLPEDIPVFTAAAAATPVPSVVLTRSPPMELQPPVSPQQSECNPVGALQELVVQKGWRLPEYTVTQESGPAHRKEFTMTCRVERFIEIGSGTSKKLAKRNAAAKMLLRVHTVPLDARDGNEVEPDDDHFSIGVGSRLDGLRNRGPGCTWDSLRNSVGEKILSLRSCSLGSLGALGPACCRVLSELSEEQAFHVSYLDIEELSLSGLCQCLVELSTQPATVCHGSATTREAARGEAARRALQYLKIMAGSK
UniProt Q17RY0: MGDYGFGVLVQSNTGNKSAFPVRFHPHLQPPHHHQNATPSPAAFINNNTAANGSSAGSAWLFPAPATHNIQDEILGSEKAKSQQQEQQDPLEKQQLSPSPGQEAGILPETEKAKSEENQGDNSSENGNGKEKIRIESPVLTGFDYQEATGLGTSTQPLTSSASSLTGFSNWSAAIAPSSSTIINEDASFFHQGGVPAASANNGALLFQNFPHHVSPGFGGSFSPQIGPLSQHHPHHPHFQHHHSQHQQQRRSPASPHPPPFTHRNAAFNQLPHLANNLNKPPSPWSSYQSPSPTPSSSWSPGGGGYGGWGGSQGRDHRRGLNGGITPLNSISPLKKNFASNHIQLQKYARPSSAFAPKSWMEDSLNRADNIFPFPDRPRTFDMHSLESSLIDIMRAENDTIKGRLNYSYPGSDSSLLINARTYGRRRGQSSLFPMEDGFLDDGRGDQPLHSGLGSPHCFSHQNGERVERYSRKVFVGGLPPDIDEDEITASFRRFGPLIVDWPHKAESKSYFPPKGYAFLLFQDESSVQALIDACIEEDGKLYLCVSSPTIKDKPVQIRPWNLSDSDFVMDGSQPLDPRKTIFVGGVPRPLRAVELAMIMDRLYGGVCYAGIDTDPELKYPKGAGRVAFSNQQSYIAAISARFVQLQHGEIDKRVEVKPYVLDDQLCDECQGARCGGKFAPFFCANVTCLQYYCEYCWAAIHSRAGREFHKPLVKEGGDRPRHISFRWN

What follows are targets tested with Cc1nc(Nc2ncc(C(=O)Nc3c(C)cccc3Cl)s2)cc(N2CCN(CCO)CC2)n1 [dasatinib] (assay: log2 fold change of tryptic peptide abundance, ligand vs vehicle (limited proteolysis) (log2 ratio); higher = more trypsin-susceptible (destabilized)). Conditions: ligand concentration: 5 uM; sample: K562 cleared lysate.
Target “DPYSL2 (peptide sequence: IVLEDGTLHVTEGSGR, peptide start residue: 452) (UniProt Q16555)” has a log2 fold change of -0.283. With “TEAD2 (peptide sequence: KQVSSHIQVLAR, peptide start residue: 88) (UniProt Q15562)” the log2 fold change was 0.235. With “UniProt Q2KHM9 (peptide sequence: VNSTTEANIHLK, peptide start residue: 698)” the log2 fold change was -1.29. “SNX17 (peptide sequence: SPPLLESPDATR, peptide start residue: 415) (UniProt Q15036)” was tested, and the log2 fold change was -0.141. “USF2 (peptide sequence: QQIEELKNENALLR, peptide start residue: 316) (UniProt Q15853)” was tested, and the log2 fold change was 0.412. “TSC22D1 (peptide sequence: SHLMYAVREEVEVLKEQIK, peptide start residue: 699) (UniProt Q15714)” showed a log2 fold change of -0.161. For “LRRFIP1 (peptide sequence: ELNELKDQIQDVEGK, peptide start residue: 138) (UniProt Q32MZ4)”, the log2 fold change was 0.586. In the case of “NFKBIB (peptide sequence: TPLGSAMLRPNPILAR, peptide start residue: 276) (UniProt Q15653)”, the log2 fold change is reported as -0.111. “TARBP2 (peptide sequence: FIEIGSGTSK, peptide start residue: 201) (UniProt Q15633)” gave a log2 fold change of -0.414. Target “CPEB4 (peptide sequence: RSPASPHPPPFTHR, peptide start residue: 251) (UniProt Q17RY0)” has a log2 fold change of 0.391.
